{"source": "paper PMC11142378", "binders": {"B1": {"name": "2,3-Phosphoglycerate-independent PGAM (enzyme, UniProt P74507 1-532)", "chain": "MAEAPIAPVVLVILDGWGYRPDTRANAIAQANTPIMDSLIAAYPNTLVNTSGKDVGLPKGQMGNSEVGHLNLGAGRVVPQELVRISDAIEDGTFFDNQALIEVCQRVRDRRGKLHLIGLCSDGGVHSHIDHLLGLIDLAKLQGISQLCIHAITDGRDTPTNEGAHFVQQIQAHLEKIGLGRIVSVSGRYYALDRDRRWDRVEKAYRVMTEDGVGDGRSAAQVIKDYYASDITDEFIPPTRIGAGAIASGDGVIFYNFRPDRARQLCYALVNPSFDGFPRERIQPLDFVTFTQYDPALPVVVAFEPQNLNNILGEIISRQGMKQFRTAETEKYPHVTYFFNGGLEQPFAGEDRELIQSPMVSTYDKAPQMSAKAVTDAVCRAMEKGIYSLVVVNYANPDMVGHTGKLKEAIQAIETVDLNLGRLLASAAKVGGTVLITADHGNAEYMSDESGNPWTAHTTNPVPFILVEGEGRKIPGHGGEVKLREGGKLADIAPTILDILQLPVPAEMTGKTLIDQPLVEIKANRTPVNLSR"}}, "biological_target": "Carbon-flow-regulator A (CfrA) (Synechocystis sp. PCC 6803)", "test": "affinity purification with mass spectrometry; anti-CfrA serum cross-linked (BS3) to Protein A Dynabeads; crude extracts of Pars-cfrA, ΔglgC/Pars-cfrA and ΔglnB/Pars-cfrA cells after 24 h arsenite, nitrogen-replete; MES buffer (25 mM Mes pH 6.5, 5 mM CaCl2, 10 mM MgCl2, 20% glycerol); overnight at 4°C; preimmune serum as control; precipitate analysed by LC-MS/MS", "note": "Results are given in words; binding and its absence hold for the method and conditions named. Binding seen in cells or lysates may run through a third protein. A yes stands for co-enrichment or nearness to the bait. Other partners may have been found.", "data": [{"binder": "B1", "values": [{"measurement": "binding", "value": "binds"}]}]}
